Assay results published in US20110263483A1 (UNIVERSITY OF UTAH RESEARCH FOUNDATION, published 2011).

Target: T1, Robo4 cytoplasmic tail-HA (UniProt Q8C310 494-1012, limits assumed)
T1 construct: domain: cytoplasmic tail; also called Robo4 tail
T1 sequence (looked up): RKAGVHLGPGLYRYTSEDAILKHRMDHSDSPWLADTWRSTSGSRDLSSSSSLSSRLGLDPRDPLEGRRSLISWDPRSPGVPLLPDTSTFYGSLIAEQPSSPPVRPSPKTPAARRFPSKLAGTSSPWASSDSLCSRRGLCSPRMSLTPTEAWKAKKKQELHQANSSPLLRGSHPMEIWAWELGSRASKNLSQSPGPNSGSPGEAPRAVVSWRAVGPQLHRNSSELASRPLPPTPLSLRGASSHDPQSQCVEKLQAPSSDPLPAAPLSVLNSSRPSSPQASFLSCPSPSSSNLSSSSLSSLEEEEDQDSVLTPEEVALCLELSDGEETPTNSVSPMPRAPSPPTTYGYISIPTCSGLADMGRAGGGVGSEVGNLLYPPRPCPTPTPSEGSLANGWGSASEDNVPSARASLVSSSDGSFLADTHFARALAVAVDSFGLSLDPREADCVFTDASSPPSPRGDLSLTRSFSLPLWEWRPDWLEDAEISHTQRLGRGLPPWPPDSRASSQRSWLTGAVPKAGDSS
Assay: co-immunoprecipitation from co-transfected HEK 293 cells
Description: Robo4 was immunoprecipitated from cell lysates with HA antibodies, and paxillin was detected by western blotting with V5 antibodies. […] Robo4 was immunoprecipitated with HA antibodies, and paxillin was detected by western blotting with V5 antibodies. […] Knock down and reconstitution were visualized by western blotting with paxillin antibodies and quantified by densitometry. Paxillin expression was determined to be 35% of wild-type levels. […] Results are presented as the mean±SE.
Lim4 of Paxillin is required for Interaction with Robo4 and Robo4-dependent Inhibition of Cell Spreading: Although Robo4APIM maintains its interaction with Mena (FIG. 4E), it is possible that this mutation perturbed interaction of Robo4 with proteins other than paxillin. To address this issue definitively, paxillin mutants were generated that disrupt association with Robo4. Paxillin is a modular protein composed of N-terminal leucine/aspartic acid (LD) repeats and C-terminal Lim domains (FIG. 6A). […] To validate this notion, co-immunoprecipitation experiments were performed using HEK 293 cells co-transfected with the Robo4 tail and either paxillin-LD or paxillin-Lim.

B1: paxillin-LD (other, murine, UniProt Q8VI36 1-355, looked up, not shown: small tags and cut ends)
chain: MDDLDALLADLESTTSHISKRPVFLSEEPPYSYPTGNHTYQEIAVPPPVPPPPSSEALNGTVLDPLDQWQPSGSRYAHQQPPSPLPVYSSSAKNSSASNTQDGVGSLCSRAGEEEHVYSFPNKQKSAEPSPTVMSSSLGSNLSELDRLLLELNAVQHSPPGFPADEAESSPPLPGALSPLYGIPENNTPLGGKAGPLVKEKPKRNGGRGLEDVRPSVESLLDELESSVPSPVPAITVNQGEMSSPQRVTSSQQQTRISASSATRELDELMASLSDFKMQGLEQRVDGERPWAAGWPPSSRQSSPEGQDEGGFMAQGKTGSSSPPGGLSKPGSQLDSMLGSLQSDLNKLGVATVAK
notes: domain: LD repeats
B1: no binding.
